Experimental data as given in patent US20090258385A1, “METHOD OF ANALYZING CELLS BY FLOW CYTOMETRY, USE OF AN ANTIOXIDANT AND/OR FREE RADICAL-SCAVENGING AGENT IN SUCH A METHOD AND INCUBATION BUFFER COMPRISING AN ANTIOXIDANT AND/OR FREE RADICAL-SCAVENGING AGENT” (Hopitaux de Paris, priority 2008, published 2009).

Tested on: lymphocytes labeled with anti-CD45 antibody conjugated with APC tandem
Assay: percentage of decoupling of APC tandem on immunolabeled lymphocytes by flow cytometry
Format: cell-based, human
Conditions: anti-CD45 conjugate, 30 minutes, room temperature, dark

| Substance | variation of the decoupling ratio during incubation (T0 to T30) |
| --- | --- |
| allophycocyanin-Hilite®7-BD [APC-H7] | four- to five-fold increase |
| allophycocyanin-cyanine 7 [APC-Cy7] | four- to five-fold increase |
